Measurements taken from the supplement of paper PMC10626197.
Counter-ions that a name gives are not always drawn. Several reference drugs read as weak here; read low effects with care.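 The breast cancer cell line MCF7 was treated with drug pairs over a dose grid. Each plate included DMSO-only wells as the untreated reference and a doxorubicin series as the total-kill control. These viability readings have no hit threshold applied.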

Test system: MCF7
Test: cell viability relative to DMSO control (raw); higher = more viable cells
Conditions: exposure time 72 h
Method: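 MCF7 cells, 1000 cells/well in 384-well plates, treated with 6x6 dose matrices of drug pairs (1:3 serial dilutions, DMSO as lowest dose) for 72 h at 37 °C. Viability read by CellTiter-Glo luminescence, 3 biological replicates. Normalised viability sets 0% at the highest doxorubicin dose and 100% at the 0,0 µM control per combination.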

O=P(O)(O)C(O)(Cn1ccnc1)P(=O)(O)O [Zoledronic] + CCOC(=O)N1CCC(=C2c3ccc(Cl)cc3CCc3cccnc32)CC1 [Loratadine]
cell viability [%]
Conditions | drug 2 concentration 0 µM | drug 2 concentration 0.0617284 µM | drug 2 concentration 0.185185 µM | drug 2 concentration 0.555556 µM | drug 2 concentration 1.66667 µM | drug 2 concentration 5 µM
drug 1 concentration 0.0493827 µM | 95.1 | 97.2 | 99.4 | 98.5 | 90.2 | 78.8
drug 1 concentration 0.148148 µM | 95.5 | 107 | 97.8 | 94 | 97 | 89.2
drug 1 concentration 0.444444 µM | 95.2 | 99.2 | 96.1 | 96.3 | 88.2 | 82.02
drug 1 concentration 1.33333 µM | 107 | 107 | 101 | 102 | 101 | 91.5
drug 1 concentration 4 µM | 106 | 107 | 113 | 101 | 98.4 | 86.6

C/C(=C\c1csc(C)n1)[C@@H]1C[C@@H]2O[C@]2(C)CCC[C@H](C)[C@H](O)[C@@H](C)C(=O)C(C)(C)[C@@H](O)CC(=O)N1 [ixabepilone] + C=C1/C(=C\C=C2/CCC[C@]3(C)[C@@H]([C@H](C)CCCC(C)C)CC[C@@H]23)C[C@@H](O)C[C@@H]1O [Alfacalcidol]
cell viability [%]
Conditions | drug 2 concentration 0 µM | drug 2 concentration 0.617284 µM | drug 2 concentration 1.85185 µM | drug 2 concentration 5.55556 µM | drug 2 concentration 16.6667 µM | drug 2 concentration 50 µM
drug 1 concentration 0.00185185 µM | 92.9 | 82.3 | 93.5 | 90.5 | 69.9 | 0.778
drug 1 concentration 0.00555556 µM | 100 | 102 | 98.3 | 93.4 | 78 | 0.904
drug 1 concentration 0.0166667 µM | 97.7 | 92.3 | 94.5 | 99.1 | 79.2 | 0.704
drug 1 concentration 0.05 µM | 108 | 108 | 103 | 102 | 93.8 | 0.579
drug 1 concentration 0.15 µM | 114 | 111 | 113 | 111 | 77.1 | 0.767

C/C(=C\c1csc(C)n1)[C@@H]1C[C@@H]2O[C@]2(C)CCC[C@H](C)[C@H](O)[C@@H](C)C(=O)C(C)(C)[C@@H](O)CC(=O)N1 [ixabepilone] + C=CC(=O)Nc1cccc(Nc2nc(Nc3ccc(OCCOC)cc3)ncc2F)c1 [Spebrutinib]
cell viability [%]
Conditions | drug 2 concentration 0 µM | drug 2 concentration 0.37037 µM | drug 2 concentration 1.11111 µM | drug 2 concentration 3.33333 µM | drug 2 concentration 10 µM | drug 2 concentration 30 µM
drug 1 concentration 0.00185185 µM | 103 | 99.9 | 97.3 | 84.7 | 58.3 | 2.79
drug 1 concentration 0.00555556 µM | 111 | 101 | 100 | 95.6 | 68.9 | 1.75
drug 1 concentration 0.0166667 µM | 89 | 90.5 | 92.1 | 83.9 | 61.7 | 2.8
drug 1 concentration 0.05 µM | 95 | 95.4 | 94.9 | 80.1 | 60.6 | 1.03
drug 1 concentration 0.15 µM | 95.7 | 101 | 110 | 89.4 | 62.5 | 1.7

C/C(=C\c1csc(C)n1)[C@@H]1C[C@@H]2O[C@]2(C)CCC[C@H](C)[C@H](O)[C@@H](C)C(=O)C(C)(C)[C@@H](O)CC(=O)N1 [ixabepilone] + CC(=O)[C@H]1CC[C@H]2[C@@H]3CCC4=CC(=O)CC[C@]4(C)[C@H]3CC[C@]12C [Progesterone]
cell viability [%]
Conditions | drug 2 concentration 0 µM | drug 2 concentration 0.0493827 µM | drug 2 concentration 0.148148 µM | drug 2 concentration 0.444444 µM | drug 2 concentration 1.33333 µM | drug 2 concentration 4 µM
drug 1 concentration 0.00185185 µM | 95.2 | 98.6 | 92.8 | 103 | 89.6 | 85.9
drug 1 concentration 0.00555556 µM | 104 | 104 | 106 | 103 | 106 | 95.4
drug 1 concentration 0.0166667 µM | 89.1 | 95.9 | 92.4 | 92 | 93.6 | 87.6
drug 1 concentration 0.05 µM | 101 | 101 | 97.4 | 102 | 98.8 | 82.6
drug 1 concentration 0.15 µM | 99.2 | 101 | 101 | 99.2 | 103 | 97.6

C/C(=C\c1csc(C)n1)[C@@H]1C[C@@H]2O[C@]2(C)CCC[C@H](C)[C@H](O)[C@@H](C)C(=O)C(C)(C)[C@@H](O)CC(=O)N1 [ixabepilone] + CN(C)C1CCN(C(=O)c2ccc(NC(=O)Nc3ccc(-c4nc(N5CCOCC5)nc(N5CCOCC5)n4)cc3)cc2)CC1 [Gedatolisib (PF-05212384; PKI-587)]
cell viability [%]
Conditions | drug 2 concentration 0 µM | drug 2 concentration 0.0148148 µM | drug 2 concentration 0.0444444 µM | drug 2 concentration 0.133333 µM | drug 2 concentration 0.4 µM | drug 2 concentration 1.2 µM
drug 1 concentration 0.00185185 µM | 96.2 | 68.9 | 54.1 | 43.8 | 38.1 | 36.7
drug 1 concentration 0.00555556 µM | 105 | 76.4 | 53.3 | 43.8 | 40.7 | 36.5
drug 1 concentration 0.0166667 µM | 92.6 | 70.9 | 56.6 | 43.6 | 39.4 | 38.8
drug 1 concentration 0.05 µM | 108 | 82.1 | 55.2 | 45.1 | 40.9 | 38.7
drug 1 concentration 0.15 µM | 116 | 75.1 | 55.5 | 45.6 | 40 | 38

C/C(=C\c1csc(C)n1)[C@@H]1C[C@@H]2O[C@]2(C)CCC[C@H](C)[C@H](O)[C@@H](C)C(=O)C(C)(C)[C@@H](O)CC(=O)N1 [ixabepilone] + CN(C)C(=O)c1cc2cnc(Nc3ccc(N4CCNCC4)cn3)nc2n1C1CCCC1 [Ribociclib]
cell viability [%]
Conditions | drug 2 concentration 0 µM | drug 2 concentration 0.123457 µM | drug 2 concentration 0.37037 µM | drug 2 concentration 1.11111 µM | drug 2 concentration 3.33333 µM | drug 2 concentration 10 µM
drug 1 concentration 0.00185185 µM | 91.3 | 87.3 | 87.7 | 84 | 84.3 | 85.5
drug 1 concentration 0.00555556 µM | 88.3 | 85.1 | 83.8 | 83.5 | 88.4 | 85.3
drug 1 concentration 0.0166667 µM | 76.9 | 78.9 | 78.3 | 82.7 | 76.8 | 75.2
drug 1 concentration 0.05 µM | 79.1 | 89.6 | 90.9 | 87.8 | 84.6 | 74.5
drug 1 concentration 0.15 µM | 91.6 | 99 | 91.5 | 85.2 | 83.6 | 73.9

C/C(=C\c1csc(C)n1)[C@@H]1C[C@@H]2O[C@]2(C)CCC[C@H](C)[C@H](O)[C@@H](C)C(=O)C(C)(C)[C@@H](O)CC(=O)N1 [ixabepilone] + COc1cc2nc(N3CCN(C(=O)C4CCCO4)CC3)nc(N)c2cc1OC [Terazosin (hydrochloride dihydrate)]
cell viability [%]
Conditions | drug 2 concentration 0 µM | drug 2 concentration 0.0308642 µM | drug 2 concentration 0.0925926 µM | drug 2 concentration 0.277778 µM | drug 2 concentration 0.833333 µM | drug 2 concentration 2.5 µM
drug 1 concentration 0.00185185 µM | 92.3 | 100 | 99.7 | 103 | 90.9 | 88.5
drug 1 concentration 0.00555556 µM | 100 | 105 | 97 | 98.6 | 95.7 | 93
drug 1 concentration 0.0166667 µM | 77.7 | 82.7 | 91 | 88.7 | 78.1 | 71
drug 1 concentration 0.05 µM | 92.9 | 101 | 98.7 | 97.1 | 94.1 | 86.6
drug 1 concentration 0.15 µM | 97.9 | 102 | 103 | 102 | 86.5 | 77.5

C/C(=C\c1csc(C)n1)[C@@H]1C[C@@H]2O[C@]2(C)CCC[C@H](C)[C@H](O)[C@@H](C)C(=O)C(C)(C)[C@@H](O)CC(=O)N1 [ixabepilone] + COc1cc2ncnc(Nc3ccc(F)c(Cl)c3)c2cc1NC(=O)/C=C/CN1CCCCC1 [Dacomitinib]
cell viability [%]
Conditions | drug 2 concentration 0 µM | drug 2 concentration 0.246914 µM | drug 2 concentration 0.740741 µM | drug 2 concentration 2.22222 µM | drug 2 concentration 6.66667 µM | drug 2 concentration 20 µM
drug 1 concentration 0.00185185 µM | 106 | 98.5 | 98.7 | 87.5 | 28.1 | 0.692
drug 1 concentration 0.00555556 µM | 108 | 103 | 104 | 87.5 | 46.8 | 0.502
drug 1 concentration 0.0166667 µM | 101 | 102 | 95.8 | 90.4 | 34 | 0.97
drug 1 concentration 0.05 µM | 119 | 110 | 115 | 100 | 28.9 | 0.722
drug 1 concentration 0.15 µM | 126 | 122 | 121 | 96.6 | 26.8 | 0.806

C/C(=C\c1csc(C)n1)[C@@H]1C[C@@H]2O[C@]2(C)CCC[C@H](C)[C@H](O)[C@@H](C)C(=O)C(C)(C)[C@@H](O)CC(=O)N1 [ixabepilone] + COc1cc(Nc2ncc3c(n2)-c2ccc(Cl)cc2C(c2c(F)cccc2OC)=NC3)ccc1C(=O)O [Alisertib]
cell viability [%]
Conditions | drug 2 concentration 0 µM | drug 2 concentration 0.0617284 µM | drug 2 concentration 0.185185 µM | drug 2 concentration 0.555556 µM | drug 2 concentration 1.66667 µM | drug 2 concentration 5 µM
drug 1 concentration 0.00185185 µM | 101 | 102 | 109 | 105 | 108.8 | 91.4
drug 1 concentration 0.00555556 µM | 105 | 107.2 | 99.7 | 105 | 99.6 | 96.7
drug 1 concentration 0.0166667 µM | 107 | 110 | 105 | 104 | 104 | 97.9
drug 1 concentration 0.05 µM | 113 | 116 | 110 | 105 | 97.4 | 96.4
drug 1 concentration 0.15 µM | 126 | 121 | 115 | 106 | 105 | 99.5

C/C(=C\c1csc(C)n1)[C@@H]1C[C@@H]2O[C@]2(C)CCC[C@H](C)[C@H](O)[C@@H](C)C(=O)C(C)(C)[C@@H](O)CC(=O)N1 [ixabepilone] + N#CC1(c2ccc(NC(=O)c3cccnc3NCc3ccncc3)cc2)CCCC1 [Apatinib]
cell viability [%]
Conditions | drug 2 concentration 0 µM | drug 2 concentration 0.0617284 µM | drug 2 concentration 0.185185 µM | drug 2 concentration 0.555556 µM | drug 2 concentration 1.66667 µM | drug 2 concentration 5 µM
drug 1 concentration 0.00185185 µM | 105 | 102 | 108 | 116 | 116 | 110
drug 1 concentration 0.00555556 µM | 114 | 108 | 113 | 110 | 114 | 98
drug 1 concentration 0.0166667 µM | 105 | 98.4 | 107 | 120 | 109 | 102
drug 1 concentration 0.05 µM | 112.6 | 116 | 127 | 119 | 115 | 113
drug 1 concentration 0.15 µM | 121 | 117 | 120 | 113 | 116 | 114
